No constants are given. Whether binding was seen depends on the method and setting. Some binding calls cover weakened binding; strength is not graded here. For some of these results: Tags and fused reporters may be left off the sequences shown.

Experiment [1] concerns the target T1, Mia40 (S. cerevisiae (endogenous in mitochondria isolated from WT yeast)), P36046.
T1 chain: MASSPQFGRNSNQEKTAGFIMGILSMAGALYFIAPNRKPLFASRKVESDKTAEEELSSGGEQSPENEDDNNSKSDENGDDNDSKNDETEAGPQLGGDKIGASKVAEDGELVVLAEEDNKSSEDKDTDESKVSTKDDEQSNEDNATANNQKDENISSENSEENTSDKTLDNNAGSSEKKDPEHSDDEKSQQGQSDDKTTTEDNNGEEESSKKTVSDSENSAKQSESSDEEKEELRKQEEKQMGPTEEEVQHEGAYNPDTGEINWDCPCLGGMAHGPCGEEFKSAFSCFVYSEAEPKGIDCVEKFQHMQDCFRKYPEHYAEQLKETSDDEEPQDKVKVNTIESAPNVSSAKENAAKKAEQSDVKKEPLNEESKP
The experiment is described as follows: in organello import with non-reducing SDS-PAGE and autoradiography (disulfide-bonded import intermediate); radiolabeled protein incubated with mitochondria isolated from WT yeast in import buffer (250 mM sucrose, 80 mM KCl, 10 mM MOPS-KOH, pH 7.2, 2 mM ATP, 2 mM NADH) at 25 °C; stopped with 50 mM IA; samples in Laemmli buffer with 50 mM IA for non-reducing SDS-PAGE. The note with it: remark: other sources report otherwise.

Experiment [2] concerns the target T2, Mia40 (S. cerevisiae (endogenous in mitochondria isolated from WT yeast)) (UniProt P36046).
T2 sequence: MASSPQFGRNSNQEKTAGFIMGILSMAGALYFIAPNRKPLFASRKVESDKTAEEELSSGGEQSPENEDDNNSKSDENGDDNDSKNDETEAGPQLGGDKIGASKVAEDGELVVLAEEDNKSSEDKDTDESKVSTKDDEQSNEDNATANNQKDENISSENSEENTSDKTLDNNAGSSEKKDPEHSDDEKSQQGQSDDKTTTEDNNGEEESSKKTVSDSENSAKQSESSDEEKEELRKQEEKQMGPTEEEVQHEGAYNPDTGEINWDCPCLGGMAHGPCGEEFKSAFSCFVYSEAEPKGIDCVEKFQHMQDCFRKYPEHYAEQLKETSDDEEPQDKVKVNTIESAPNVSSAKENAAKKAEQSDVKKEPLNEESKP
The description is as above.

B1: Cox12, Q01519 1-83 (protein)
chain: MADQENSPLHTVGFDARFPQQNQTKHCWQSYVDYHKCVNMKGEDFAPCKVFWKTYNALCPLDWIEKWDDQREKGIFAGDINSD
modifications: here or on the partner: [35S]methionine-labeled
On to B1, for which the binding entry in experiment [1] is reported as “binds”.

B2: Cox12_(C37S-FLAG) (protein, UniProt Q01519 1-83)
chain: MADQENSPLHTVGFDARFPQQNQTKHCWQSYVDYHKSVNMKGEDFAPCKVFWKTYNALCPLDWIEKWDDQREKGIFAGDINSD
modifications: [35S]methionine-labeled
For the molecule B2, the binding entry in experiment [2] is “binds”.

B3: Cox12_(C-FREE) (protein, UniProt Q01519 1-83)
chain: MADQENSPLHTVGFDARFPQQNQTKHSWQSYVDYHKSVNMKGEDFAPSKVFWKTYNALSPLDWIEKWDDQREKGIFAGDINSD
modifications: [35S]methionine-labeled
For B3, the binding entry in experiment [2] is recorded as “no binding”.

B4: Cox12_(C27S-FLAG) (protein, UniProt Q01519 1-83)
chain: MADQENSPLHTVGFDARFPQQNQTKHSWQSYVDYHKCVNMKGEDFAPCKVFWKTYNALCPLDWIEKWDDQREKGIFAGDINSD
modifications: [35S]methionine-labeled
For B4, the binding result in experiment [2] is “binds”.

These data come from PMC6013907.
